Measurements as given in paper PMC9500045.
No constants are given. Whether binding was seen depends on the method and setting. Binding seen in cells or lysates may run through a third protein. Some results given as binding are weak or reduced against the parent protein; the word gives no strength. Tags and fused reporters may be left off the sequences shown.

Protein sequences, listed by entry. Tags and fused reporters are not part of them.
UniProt Q14247: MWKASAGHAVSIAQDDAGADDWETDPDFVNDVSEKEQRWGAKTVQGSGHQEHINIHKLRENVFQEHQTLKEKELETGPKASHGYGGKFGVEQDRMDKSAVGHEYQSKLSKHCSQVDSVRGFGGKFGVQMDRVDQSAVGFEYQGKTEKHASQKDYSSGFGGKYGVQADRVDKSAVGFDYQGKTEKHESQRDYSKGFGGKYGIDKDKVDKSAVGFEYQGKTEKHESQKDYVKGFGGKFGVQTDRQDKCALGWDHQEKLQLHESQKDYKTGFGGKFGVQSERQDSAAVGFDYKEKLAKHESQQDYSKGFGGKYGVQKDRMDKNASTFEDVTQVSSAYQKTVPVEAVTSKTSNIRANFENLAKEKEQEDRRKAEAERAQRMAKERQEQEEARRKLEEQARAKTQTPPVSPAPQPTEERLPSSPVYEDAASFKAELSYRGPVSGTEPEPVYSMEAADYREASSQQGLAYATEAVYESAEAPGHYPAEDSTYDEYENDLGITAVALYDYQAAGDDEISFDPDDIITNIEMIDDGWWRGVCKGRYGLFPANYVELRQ

Molecular target: T1, Flag-tagged USP43 (UniProt Q70EL4)
T1 sequence: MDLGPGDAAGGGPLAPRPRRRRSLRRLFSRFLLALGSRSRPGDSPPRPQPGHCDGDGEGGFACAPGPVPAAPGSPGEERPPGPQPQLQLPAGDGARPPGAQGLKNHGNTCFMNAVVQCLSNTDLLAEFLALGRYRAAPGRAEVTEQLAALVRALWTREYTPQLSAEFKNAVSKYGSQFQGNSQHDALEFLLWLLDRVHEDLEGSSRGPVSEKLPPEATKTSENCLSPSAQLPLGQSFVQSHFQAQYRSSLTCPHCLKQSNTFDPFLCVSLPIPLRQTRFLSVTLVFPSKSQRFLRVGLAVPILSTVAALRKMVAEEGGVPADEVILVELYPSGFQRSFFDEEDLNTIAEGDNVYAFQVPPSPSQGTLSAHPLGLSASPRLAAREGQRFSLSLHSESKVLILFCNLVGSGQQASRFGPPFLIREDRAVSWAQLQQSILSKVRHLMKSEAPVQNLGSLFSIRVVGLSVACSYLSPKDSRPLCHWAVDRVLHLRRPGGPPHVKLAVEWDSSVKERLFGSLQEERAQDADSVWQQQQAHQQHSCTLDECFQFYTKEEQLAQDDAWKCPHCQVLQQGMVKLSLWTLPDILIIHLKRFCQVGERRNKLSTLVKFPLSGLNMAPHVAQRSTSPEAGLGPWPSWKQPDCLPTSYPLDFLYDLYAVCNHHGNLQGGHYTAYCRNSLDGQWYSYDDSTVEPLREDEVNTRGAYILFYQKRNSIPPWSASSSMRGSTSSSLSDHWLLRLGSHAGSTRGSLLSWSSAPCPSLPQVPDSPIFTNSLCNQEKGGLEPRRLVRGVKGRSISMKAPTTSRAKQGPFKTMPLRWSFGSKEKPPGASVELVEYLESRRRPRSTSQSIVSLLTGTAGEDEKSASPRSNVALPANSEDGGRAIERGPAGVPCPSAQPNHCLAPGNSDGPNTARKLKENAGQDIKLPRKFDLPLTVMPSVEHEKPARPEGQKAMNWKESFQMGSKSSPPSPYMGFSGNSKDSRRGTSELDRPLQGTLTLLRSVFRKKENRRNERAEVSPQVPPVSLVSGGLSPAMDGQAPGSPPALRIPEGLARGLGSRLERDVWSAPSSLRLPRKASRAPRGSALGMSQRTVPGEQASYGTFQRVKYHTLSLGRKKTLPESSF
Assay: co-IP; whole cell lysate of MDA-MB-231 cells expressing Flag-tagged USP43 or control vector, incubated with anti-Flag beads at 4 °C, washed three times with IP lysis buffer; immunoblot for cortactin

binding: binds
Substance: cortactin (from UniProt Q14247 1-550)
